Reference: PubChem BioAssay AID1259254 (NCATS, 2017)
Aim: 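Finding genes that stop cells copying their DNA twice in one cycle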 (primary screen). System: human HCT116 colorectal cancer cells. Knock-down reagent: single siRNA against human genes. Time to read-out: 3 days. Read-out: 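Imaged Hoechst DNA stain sorts each cell into a cycle phase by DNA amount; per plate, G2 fraction set to 0% for non-targeting and 100% for GMNN siRNA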. Direction: G2 robust z-score and G2 cells, % of GMNN control: higher = more G2 cells, more excess DNA replication. Rule for the call: 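An siRNA counts as active if its G2 robust z-score lies at least 5 MADs above the screen median; here such calls match roughly 38% of GMNN control or more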.
Here is a random part of about 59,000 deposited reagents. About 1,550 of all reagents (2.6%) count as active. 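G2 share is only a proxy for re-replication; each gene was hit by three separate siRNAs, and active genes were retested.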 Reagents against one gene are numbered here. Not all columns of the deposit are shown. Not stated in the record: the amount of reagent.

The opening 2 records, to show the layout:
TOPAZ1 (testis and ovary specific TOPAZ 1) #1
- G2 robust z-score: 1.43
- G2 cells, % of GMNN control: 13
- activity call: inactive

TOPAZ1 (testis and ovary specific TOPAZ 1) #2
- G2 robust z-score: 4.9
- G2 cells, % of GMNN control: 37.5
- activity call: inactive

The listing, from the first entry:
TOPAZ1 (testis and ovary specific TOPAZ 1) #1
- G2 robust z-score: 1.43
- G2 cells, % of GMNN control: 13
- activity call: inactive

TOPAZ1 (testis and ovary specific TOPAZ 1) #2
- G2 robust z-score: 4.9
- G2 cells, % of GMNN control: 37.5
- activity call: inactive

TOPAZ1 (testis and ovary specific TOPAZ 1) #3
- G2 robust z-score: 0.473
- G2 cells, % of GMNN control: 6.3
- activity call: inactive

LOC643936 (retired record) #1
- G2 robust z-score: -0.497
- G2 cells, % of GMNN control: -0.532
- activity call: inactive

LOC643936 (retired record) #2
- G2 robust z-score: 0.392
- G2 cells, % of GMNN control: 5.72
- activity call: inactive

LOC643936 (retired record) #3
- G2 robust z-score: 0.307
- G2 cells, % of GMNN control: 5.13
- activity call: inactive

MS4A10 (membrane spanning 4-domains A10) #1
- G2 robust z-score: 2.07
- G2 cells, % of GMNN control: 17.5
- activity call: inactive

MS4A10 (membrane spanning 4-domains A10) #2
- G2 robust z-score: 0.471
- G2 cells, % of GMNN control: 6.28
- activity call: inactive

MS4A10 (membrane spanning 4-domains A10) #3
- G2 robust z-score: -0.68
- G2 cells, % of GMNN control: -1.82
- activity call: inactive

MAFG (MAF bZIP transcription factor G) #1
- G2 robust z-score: 2.62
- G2 cells, % of GMNN control: 21.4
- activity call: inactive

MAFG (MAF bZIP transcription factor G) #2
- G2 robust z-score: -1.23
- G2 cells, % of GMNN control: -5.7
- activity call: inactive

MAFG (MAF bZIP transcription factor G) #3
- G2 robust z-score: -1.41
- G2 cells, % of GMNN control: -6.98
- activity call: inactive
